Laboratory results as given in publication PMC11459959, “Discovery of new acetamide derivatives of 5-indole-1,3,4-oxadiazol-2-thiol as inhibitors of HIV-1 Tat-mediated viral transcription” (Antimicrobial Agents and Chemotherapy, 2024).

Tests used:
[1] = tested on: Tat-mediated LTR transcription; test: Dual-reporter assay, F-Luc (Tat-mediated LTR transcription) in bl-DTR cells; type: cell-based, HIV-1; conditions: Human immunodeficiency virus 1, 24 h, read-out: IC50 of F-Luc (Tat)
Description: Fig 1 (A) (Top panel) Schematic representation of the primary compound screening using a dual-reporter system. […] (B). […] (Top graphs) bl-DTR cells (1 × 10^4) were treated with twofold serial dilutions of each compound before doxycycline (Dox) addition (final concentration, 50 ng/mL). After 24 h of treatment, the activities of firefly luciferase (F-Luc, red line) and Renilla luciferase (R-Luc, blue line) were determined using the Dual-Glo Luciferase assay system. (Bottom graphs) TZM-bl cells were treated with each indicated compound and subsequently infected with the HIV-1NL4-3 strain at a multiplicity of infection (MOI) of 1. At 48 h after infection, the viral infectivity (purple line) and cell viability (green line) were determined using the Bright-Glo luciferase assay kit and the PrestoBlue Cell Viability Reagent, respectively. […] (C). […]
The Tzm-bl-derived dual Tat reporter; TZM-bl/Tat/Rluc (bl-DTR) cells were established from TZM-bl cells using two Dox-inducible lentiviral expression cassettes cloned with Flag-tagged Tat86 and the R-Luc gene, as described in our previous study ([11]). […] The infected blue-colored cells were counted under a microscope (100× magnification). The infectious virus titer was determined as a mean value of blue-colored cells count × dilution factor and used for determining the multiplicity of infection (MOI) in each infection experiment.

HIV-1NL4-3 [2] = test: HIV-1 infectivity in TZM-bl cells (F-Luc); type: cell-based; conditions: Human immunodeficiency virus 1, TZM-bl, 48 h, TZM-bl cells infected with HIV-1NL4-3 at MOI 1, 48 h, mean ± SD
HIV-1NL4-3 [3] = test: HIV-1 replication in A3.01 cells (p24 […]); type: cell-based; conditions: Human immunodeficiency virus 1, 72 h, HIV-1NL4-3 MOI 0.1, 3 days, mean ± SD
Description: (§1) The p24 level from the cell supernatant was subsequently determined using a p24 […] kit (PerkinElmer). In parallel, the cell viability was determined without viral infection because of the viral cytopathic effect. […] In parallel, cell viability was determined. The data (A and B) are presented as the mean ± SD (n = 3). (C) PBMCs (4 × 10^5) infected with HIV-AD8 at an MOI of 0.1 were treated with 1.5 µM of the compounds or ARVs for 3 days. The levels of p24 and cell viability were subsequently determined. (D) J1.1 cells were cultured with the compounds ([…]) under 50 ng/mL phorbol myristate acetate (PMA) treatment for 2 days. The level of p24 was subsequently determined. (E) J-Lat 6.3 cells were treated with the compounds (1.5 µM) under 1 µg/mL of PMA for 2 days. The GFP-positive cell population was analyzed using flow cytometry. […]
(§2) The inhibitory effects of the compounds on viral replication were determined with some minor modifications, as previously described ([12], [62]). […] At 72 h after infection, the inhibitory effect of the compounds on viral replication was determined by measuring the p24 amount, an HIV capsid protein, using an HIV-1 p24 […] kit (PerkinElmer, Waltham, MA, USA). Cell viability was determined as described above. The inhibitory effects on provirus reversing in J1.1 and J-Lat 6.3 cells were determined as previously described ([12], [41], [63]) with some minor modifications. […]

HIV-1NL4-3 [4] = test: HIV-1 replication in PBMCs (p24 […]); type: cell-based; conditions: Human immunodeficiency virus 1, PBMC, 72 h, HIV-1NL4-3 MOI 0.1, 3 days, mean ± SD
Description: as §1, §2

## CC[C@H](CO)Nc1nc(NCc2ccccc2)c2ncn(C(C)C)c2n1 [seliciclib, reference compound]
[1]
  IC50: 3.6 ± 0.1 µM
HIV-1NL4-3 [2]
  EC50: 3.24 ± 0.07 µM
HIV-1NL4-3 [3]
  EC50: 3.59 ± 0.69 µM
HIV-1NL4-3 [4]
  EC50: 3.93 ± 0.3 µM
